In the supplement of paper PMC4604168 (melanoma cell lines):
The list shows a part of the results. Many values rest on one well or one pass, so single values are uncertain.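 Cells were imaged in 1,536-well plates, and nuclei stained with an antibody against cleaved PARP were counted against all DNA-stained nuclei to give the apoptosis fraction. Screening doses were chosen to leave most cells alive, and resting and induced cleaved-PARP levels differ strongly between cell lines.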

Experiments:
Test in all cases: cleaved PARP positive nuclei fraction relative to DMSO control; melanoma cells; higher = more apoptosis
Details in all cases: library dose: low library concentration; 72 h
501Mel = tested on: 501Mel
A101D = tested on: A101D
A2058 = tested on: A2058
A375 = tested on: A375
C32 = tested on: C32
CBRC008 = tested on: CBRC008 (line from a melanoma biopsy)
CBRC014 = tested on: CBRC014 (line from a melanoma biopsy)
CBRC016 = tested on: CBRC016 (line from a melanoma biopsy)
CBRC017 = tested on: CBRC017 (line from a melanoma biopsy)
CBRC013 = tested on: CBRC013 (line from a melanoma biopsy)

SMILES	cleaved PARP positive nuclei fraction (501Mel) [%]	cleaved PARP positive nuclei fraction (A101D) [%]	cleaved PARP positive nuclei fraction (A2058) [%]	cleaved PARP positive nuclei fraction (A375) [%]	cleaved PARP positive nuclei fraction (C32) [%]	cleaved PARP positive nuclei fraction (CBRC008) [%]	cleaved PARP positive nuclei fraction (CBRC014) [%]	cleaved PARP positive nuclei fraction (CBRC016) [%]	cleaved PARP positive nuclei fraction (CBRC017) [%]	cleaved PARP positive nuclei fraction (CBRC013) [%]
CC(=O)c1c(C)c2cnc(Nc3ccc(N4CCNCC4)cn3)nc2n(C2CCCC2)c1=O [palbociclib] + COCC[n+]1c2c(n(Cc3cnccn3)c1C)C(=O)c1ccccc1C2=O [YM155] (first compound 0.04 µM, partner dose 0.0004 µM)	112	129	199	264	26200	669	124	153	124	
Clc1ccc(Nc2nnc(Cc3ccncc3)c3ccccc23)cc1 [vatalanib] + Nc1cccc2c1CN(C1CCC(=O)NC1=O)C2=O [lenalidomide] (first compound 2 µM, partner dose 1 µM)	78.4	85.6	81.2	139	72	125	111	139	135	
Nc1cccc2c1CN(C1CCC(=O)NC1=O)C2=O (configuration not stated) [lenalidomide] + Cn1nnc2c(C(N)=O)ncn2c1=O [temozolomide] (first compound 1 µM, partner dose 2 µM)	71.3	102	57.9	138	75.9	128	95.6	106	103	
CC(=O)c1c(C)c2cnc(Nc3ccc(N4CCNCC4)cn3)nc2n(C2CCCC2)c1=O [palbociclib] + COc1ccc(Cl)c(Nc2nc3ccccc3nc2NS(=O)(=O)c2cccc(NC(=O)C(C)(C)N)c2)c1 [XL147] (first compound 0.04 µM, partner dose 0.8 µM)	240	58.6	99.4	116	97.3	295	127	153	140	
C#Cc1cccc(Nc2ncnc3cc(OCCOC)c(OCCOC)cc23)c1 [erlotinib] + CN(NC(=O)CC(=O)NN(C)C(=S)c1ccccc1)C(=S)c1ccccc1 [STA4783] (first compound 0.8 µM, partner dose 0.006 µM)	385	210	108	1970	76.4	736	567	128	185	174
C=CCNC1=C2C[C@@H](C)C[C@H](OC)[C@H](O)[C@@H](C)/C=C(\C)[C@H](OC(N)=O)[C@@H](OC)/C=C\C=C(/C)C(=O)NC(=CC1=O)C2=O [Tanespimycin] + COc1ccc(Cl)c(Nc2nc3ccccc3nc2NS(=O)(=O)c2cccc(NC(=O)C(C)(C)N)c2)c1 [XL147] (first compound 0.002 µM, partner dose 0.8 µM)	84.1	50.5	93.4	37	368	193	104	162	152	
OCc1c[nH]c2ccccc12 [Indole-3-carbinol] + Nc1cccc2c1CN(C1CCC(=O)NC1=O)C2=O [lenalidomide] (first compound 0.8 µM, partner dose 1 µM)	91.6	47	48.6	45.6	152	79.6	87.7	73.6	113	
OCc1c[nH]c2ccccc12 [Indole-3-carbinol] + Cc1nc(Nc2ncc(C(=O)Nc3c(C)cccc3Cl)s2)cc(N2CCN(CCO)CC2)n1 [dasatanib] (first compound 0.8 µM, partner dose 0.004 µM)	90.1	115	71.4	239	91.9	47.8	179	89.6	99.7	
Clc1ccc(Nc2nnc(Cc3ccncc3)c3ccccc23)cc1 [vatalanib] + Cn1nnc2c(C(N)=O)ncn2c1=O [temozolomide] (first compound 2 µM, partner dose 2 µM)	107	99.1	140	194	79.6	52.1	139	129	111	
C=CCNC1=C2C[C@@H](C)C[C@H](OC)[C@H](O)[C@@H](C)/C=C(\C)[C@H](OC(N)=O)[C@@H](OC)/C=C\C=C(/C)C(=O)NC(=CC1=O)C2=O [Tanespimycin] + COCC[n+]1c2c(n(Cc3cnccn3)c1C)C(=O)c1ccccc1C2=O [YM155] (first compound 0.002 µM, partner dose 0.0004 µM)	86	49.4	99.4	147	134	228	91.9	122	108	
CC(=O)c1c(C)c2cnc(Nc3ccc(N4CCNCC4)cn3)nc2n(C2CCCC2)c1=O [palbociclib] + Clc1ccc(Nc2nnc(Cc3ccncc3)c3ccccc23)cc1 [vatalanib] (first compound 0.04 µM, partner dose 2 µM)	186	58	50.2	76.9	91.7	80.3	128	30	121	
C=CCNC1=C2C[C@@H](C)C[C@H](OC)[C@H](O)[C@@H](C)/C=C(\C)[C@H](OC(N)=O)[C@@H](OC)/C=C\C=C(/C)C(=O)NC(=CC1=O)C2=O [Tanespimycin] + NCC(=O)Nc1ccc(-n2nc(C(F)(F)F)cc2-c2ccc3c(ccc4ccccc43)c2)cc1 [OSU03012] (first compound 0.002 µM, partner dose 1 µM)	338	149	106	1170	137	263	94.3	130	115	131
C=CCNC1=C2C[C@@H](C)C[C@H](OC)[C@H](O)[C@@H](C)/C=C(\C)[C@H](OC(N)=O)[C@@H](OC)/C=C\C=C(/C)C(=O)NC(=CC1=O)C2=O [Tanespimycin] + Nc1cccc2c1CN(C1CCC(=O)NC1=O)C2=O [lenalidomide] (first compound 0.002 µM, partner dose 1 µM)	65.4	51	133	105	118	109	104	228	92.8	
Cc1nc(Nc2ncc(C(=O)Nc3c(C)cccc3Cl)s2)cc(N2CCN(CCO)CC2)n1 [dasatanib] + Cn1c(Nc2ccc(C(F)(F)F)cc2)nc2cc(Oc3ccnc(-c4ncc(C(F)(F)F)[nH]4)c3)ccc21 [CHIR265] (first compound 0.004 µM, partner dose 0.08 µM)	131	173	202	406	69.9	104	102	124	116	
Cc1nc(Nc2ncc(C(=O)Nc3c(C)cccc3Cl)s2)cc(N2CCN(CCO)CC2)n1 [dasatanib] + CN(NC(=O)CC(=O)NN(C)C(=S)c1ccccc1)C(=S)c1ccccc1 [STA4783] (first compound 0.004 µM, partner dose 0.006 µM)	206	340	145	3690	237	4420	505	45.3	170	84.9
OCc1c[nH]c2ccccc12 [Indole-3-carbinol] + COCC[n+]1c2c(n(Cc3cnccn3)c1C)C(=O)c1ccccc1C2=O [YM155] (first compound 0.8 µM, partner dose 0.0004 µM)	224	44.2	213	97	171	152	82.9	101	83.3	
CC(=O)c1c(C)c2cnc(Nc3ccc(N4CCNCC4)cn3)nc2n(C2CCCC2)c1=O [palbociclib] + Cc1nc(Nc2ncc(C(=O)Nc3c(C)cccc3Cl)s2)cc(N2CCN(CCO)CC2)n1 [dasatanib] (first compound 0.04 µM, partner dose 0.004 µM)	119	61.9	157	217	183	117	134	32.2	119	
C#Cc1cccc(Nc2ncnc3cc(OCCOC)c(OCCOC)cc23)c1 [erlotinib] + O=C(O)c1ccc(-c2c[nH]c3ncc(-c4ccccc4)cc23)cc1C1CCCC1 [GSK650394] (first compound 0.8 µM, partner dose 0.16 µM)	75.6	43.8	119	30.3	52.5	910	158	98	143	126
Cc1nc(Nc2ncc(C(=O)Nc3c(C)cccc3Cl)s2)cc(N2CCN(CCO)CC2)n1 [dasatanib] + Cn1nnc2c(C(N)=O)ncn2c1=O [temozolomide] (first compound 0.004 µM, partner dose 2 µM)	128	54.8	96.8	143	101	60.9	108	36	64.1	
COCC[n+]1c2c(n(Cc3cnccn3)c1C)C(=O)c1ccccc1C2=O + CO[C@@H]1[C@H](N(C)C(=O)c2ccccc2)C[C@H]2O[C@]1(C)n1c3ccccc3c3c4c(c5c6ccccc6n2c5c31)C(=O)NC4 [Midostaurin] (first compound 0.0004 µM, partner dose 0.08 µM)	86.6	49.9	524	244	138	458	95.7	83.9	73.3	107
Cn1c(Nc2ccc(C(F)(F)F)cc2)nc2cc(Oc3ccnc(-c4ncc(C(F)(F)F)[nH]4)c3)ccc21 + Nc1cccc2c1CN(C1CCC(=O)NC1=O)C2=O [lenalidomide] (first compound 0.08 µM, partner dose 1 µM)	225	220	170	250	82.8	99.3	105	149	116	
OCc1c[nH]c2ccccc12 [Indole-3-carbinol] + C#Cc1cccc(Nc2ncnc3cc(OCCOC)c(OCCOC)cc23)c1 [erlotinib] (first compound 0.8 µM, partner dose 0.8 µM)	68.6	250	119	107	86	74.8	86.4	118	87.4	
C#Cc1cccc(Nc2ncnc3cc(OCCOC)c(OCCOC)cc23)c1 [erlotinib] + COCC[n+]1c2c(n(Cc3cnccn3)c1C)C(=O)c1ccccc1C2=O [YM155] (first compound 0.8 µM, partner dose 0.0004 µM)	60.3	59.4	52	140	168	221	96.7	35.5	117	

Taken from above:
For cleaved PARP positive nuclei fraction (A375) [%], C#Cc1cccc(Nc2ncnc3cc(OCCOC)c(OCCOC)cc23)c1 [erlotinib] + CN(NC(=O)CC(=O)NN(C)C(=S)c1ccccc1)C(=S)c1ccccc1 [STA4783] (first compound 0.8 µM, partner dose 0.006 µM) is entered as 1970
For cleaved PARP positive nuclei fraction (A2058) [%], OCc1c[nH]c2ccccc12 [Indole-3-carbinol] + COCC[n+]1c2c(n(Cc3cnccn3)c1C)C(=O)c1ccccc1C2=O [YM155] (first compound 0.8 µM, partner dose 0.0004 µM) is entered as 213
